PubChem BioAssay AID1224828, NIAID – 2016
This is an unselected part of about 17,000 reagents. 762 of all reagents (4.5%) were called active. 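Active calls include both raised and lowered p65 entry, mostly lowered; wells with fewer than 50 cells lack a z-score.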 Raw values are not corrected between plates.

- Purpose: 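Knock-downs that increase or decrease LPS-induced p65 nuclear translocation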 (primary screen)
- Cell system: mouse RAW264.7 G9 macrophage reporter cells (GFP-p65, Tnf promoter-mCherry)
- Knock-down reagent: siRNA pool against mouse genes, 100 nM
- Time to read-out: 2 days siRNA transfection, then 40 min LPS before fixation
- Treatment: LPS (Salmonella minnesota R595) at 10 ng/ml
- Read-out: 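Imaged p65 nuclear translocation ratio, normalised to the plate median, converted to robust z-scores and averaged across two replicates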
- Reading the numbers: p65 translocation robust z-score: higher = more nuclear NF-kappaB p65 after LPS than the plate median; nuclear/cytoplasmic p65 ratio: higher = more nuclear NF-kappaB p65
- Hit rule: 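Active if robust z is above 3.3 (negative regulators) or below -1.56, the Tlr4 control median (positive regulators); activity score 50 or more; control wells not called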
- Meaning of the calls: active = hit (p65 shift raised or lowered); inactive = no clear change

no.	target gene	p65 translocation robust z-score	nuclear/cytoplasmic p65 ratio, rep 1	nuclear/cytoplasmic p65 ratio, rep 2	low cell count flag	activity call
1	Sgsm3 (small G protein signaling modulator 3)		1.11	1.06	fewer than 50 cells per well; well left out of scoring	inactive
2	Sparc (secreted acidic cysteine rich glycoprotein)	-0.89	1.36	1.48	enough cells to score	inactive
3	Ephb2 (Eph receptor B2)	1.69	2.01	1.56	enough cells to score	inactive
4	Mrgpra4 (MAS-related GPR, member A4)	1.73	2.01	1.9	enough cells to score	inactive
5	Defb38 (defensin beta 38)	0.54	1.63	1.65	enough cells to score	inactive
6	Tlx3 (T cell leukemia, homeobox 3)		1.31	0	fewer than 50 cells per well; well left out of scoring	inactive
7	Tcf7l1 (transcription factor 7 like 1 (T cell specific, HMG box))	-0.83	1.35	1.45	enough cells to score	inactive
8	Psph (phosphoserine phosphatase)	0.75	1.71	1.4	enough cells to score	inactive
9	Gtf2b (general transcription factor IIB)	1.45	1.57	1.61	enough cells to score	inactive
10	Mrc2 (mannose receptor, C type 2)		1.63	1.34	fewer than 50 cells per well; well left out of scoring	inactive
11	Skint2 (selection and upkeep of intraepithelial T cells 2)	1	1.53	1.65	enough cells to score	inactive
12	Utf1 (undifferentiated embryonic cell transcription factor 1)	0.98	1.66	1.63	enough cells to score	inactive
13	Orc1 (origin recognition complex, subunit 1)	0.04	1.53	1.18	enough cells to score	inactive
14	Zfp574 (zinc finger protein 574)	-0.77	1.35	1.34	enough cells to score	inactive
15	Otp (orthopedia homeobox)		1.1	1.21	fewer than 50 cells per well; well left out of scoring	inactive
16	Slc35f5		0.953	1.17	fewer than 50 cells per well; well left out of scoring	inactive
17	Cops7a (COP9 signalosome subunit 7A)	1.44	1.78	2.03	enough cells to score	inactive
18	Naga (N-acetyl galactosaminidase, alpha)	-0.7	1.36	1.24	enough cells to score	inactive
19	Zfp935 (zinc finger protein 935)		1.31	1.33	fewer than 50 cells per well; well left out of scoring	inactive
20	Adgrf1 (adhesion G protein-coupled receptor F1)	0.74	1.56	1.74	enough cells to score	inactive
21	Stat5a (signal transducer and activator of transcription 5A)	1.61	1.84	1.73	enough cells to score	inactive
22	Alyref2 (Aly/REF export factor 2)		1.27	1.06	fewer than 50 cells per well; well left out of scoring	inactive
23	Ppp1r1a (protein phosphatase 1, regulatory inhibitor subunit 1A)	0.5	1.46	1.57	enough cells to score	inactive
24	Zc3h10 (zinc finger CCCH type containing 10)	-0.75	1.48	1.59	enough cells to score	inactive

Part of the list above, set out differently.
{"target gene": "Sparc (secreted acidic cysteine rich glycoprotein)", "p65 translocation robust z-score": -0.89, "nuclear/cytoplasmic p65 ratio, rep 1": 1.36, "nuclear/cytoplasmic p65 ratio, rep 2": 1.48, "low cell count flag": "enough cells to score", "activity call": "inactive"}
{"target gene": "Ephb2 (Eph receptor B2)", "p65 translocation robust z-score": 1.69, "nuclear/cytoplasmic p65 ratio, rep 1": 2.01, "nuclear/cytoplasmic p65 ratio, rep 2": 1.56, "low cell count flag": "enough cells to score", "activity call": "inactive"}
